Test results published in paper PMC3364227.
No constants are given. Whether binding was seen depends on the method and setting. In cells and extracts the contact can be indirect.

Target: T1, DJ-1 (endogenous, mouse liver cell line) (mouse (endogenous in mouse liver cells)) (UniProt Q99LX0)
T1 sequence: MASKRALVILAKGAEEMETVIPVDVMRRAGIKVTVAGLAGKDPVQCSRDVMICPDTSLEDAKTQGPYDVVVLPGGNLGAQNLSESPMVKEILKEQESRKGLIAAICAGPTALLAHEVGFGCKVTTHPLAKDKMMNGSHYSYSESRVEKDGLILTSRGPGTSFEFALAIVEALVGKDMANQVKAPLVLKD
Assay: co-IP; endogenous proteins in extracts of mouse liver cells or SH-SY5Y cells, immunoprecipitated with a rabbit anti-DJ-1 antibody or normal IgG; Western blotting with anti-SREBP-1, anti-SREBP-2 and anti-DJ-1 antibodies

binding: no binding
B1: precursor SREBP-1 (sterol regulatory element binding protein 1), mouse liver cells (protein, UniProt Q9WTN3 1-1134)
chain: MDELAFGEAALEQTLAEMCELDTAVLNDIEDMLQLINNQDSDFPGLFDAPYAGGETGDTGPSSPGANSPESFSSASLASSLEAFLGGPKVTPAPLSPPPSAPAALKMYPSVSPFSPGPGIKEEPVPLTILQPAAPQPSPGTLLPPSFPAPPVQLSPAPVLGYSSLPSGFSGTLPGNTQQPPSSLPLAPAPGVLPTPALHTQVQSLASQQPLPASAAPRTNTVTSQVQQVPVVLQPHFIKADSLLLTAVKTDAGATVKTAGISTLAPGTAVQAGPLQTLVSGGTILATVPLVVDTDKLPIHRLAAGSKALGSAQSRGEKRTAHNAIEKRYRSSINDKIVELKDLVVGTEAKLNKSAVLRKAIDYIRFLQHSNQKLKQENLTLRSAHKSKSLKDLVSACGSGGGTDVSMEGMKPEVVETLTPPPSDAGSPSQSSPLSFGSRASSSGGSDSEPDSPAFEDSQVKAQRLPSHSRGMLDRSRLALCVLAFLCLTCNPLASLFGWGILTPSDATGTHRSSGRSMLEAESRDGSNWTQWLLPPLVWLANGLLVLACLALLFVYGEPVTRPHSGPAVHFWRHRKQADLDLARGDFPQAAQQLWLALQALGRPLPTSNLDLACSLLWNLIRHLLQRLWVGRWLAGQAGGLLRDRGLRKDARASARDAAVVYHKLHQLHAMGKYTGGHLAASNLALSALNLAECAGDAISMATLAEIYVAAALRVKTSLPRALHFLTRFFLSSARQACLAQSGSVPLAMQWLCHPVGHRFFVDGDWAVHGAPPESLYSVAGNPVDPLAQVTRLFREHLLERALNCIAQPSPGAADGDREFSDALGYLQLLNSCSDAAGAPACSFSVSSSMAATTGPDPVAKWWASLTAVVIHWLRRDEEAAERLYPLVEHIPQVLQDTERPLPRAALYSFKAARALLDHRKVESSPASLAICEKASGYLRDSLASTPTGSSIDKAMQLLLCDLLLVARTSLWQRQQSPASVQVAHGTSNGPQASALELRGFQHDLSSLRRLAQSFRPAMRRVFLHEATARLMAGASPARTHQLLDRSLRRRAGSSGKGGTTAELEPRPTWREHTEALLLASCYLPPAFLSAPGQRMSMLAEAARTVEKLGDHRLLLDCQQMLLRLGGGTTVTSS
